The record followed here is doi:10.1101/2022.09.24.508842.

Amino acid sequences for entries named in this document (tags omitted).
UniProt Q9UUK2: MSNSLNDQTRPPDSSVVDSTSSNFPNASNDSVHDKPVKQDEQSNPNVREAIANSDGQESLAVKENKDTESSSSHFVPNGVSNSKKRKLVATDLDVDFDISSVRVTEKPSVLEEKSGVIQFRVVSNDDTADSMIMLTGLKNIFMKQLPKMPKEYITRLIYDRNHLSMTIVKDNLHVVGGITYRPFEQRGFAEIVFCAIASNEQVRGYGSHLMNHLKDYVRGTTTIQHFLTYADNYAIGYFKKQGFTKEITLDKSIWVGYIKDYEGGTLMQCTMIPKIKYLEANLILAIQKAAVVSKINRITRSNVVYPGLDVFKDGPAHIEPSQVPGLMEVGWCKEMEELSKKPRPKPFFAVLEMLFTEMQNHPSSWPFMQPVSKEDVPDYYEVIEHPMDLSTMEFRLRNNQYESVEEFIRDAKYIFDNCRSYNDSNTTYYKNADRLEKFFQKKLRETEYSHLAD

In assay [1] the target is T1, Gal4BD-Ada2 (full-length) (S. pombe) (UniProt Q9P7J7).
T1 sequence: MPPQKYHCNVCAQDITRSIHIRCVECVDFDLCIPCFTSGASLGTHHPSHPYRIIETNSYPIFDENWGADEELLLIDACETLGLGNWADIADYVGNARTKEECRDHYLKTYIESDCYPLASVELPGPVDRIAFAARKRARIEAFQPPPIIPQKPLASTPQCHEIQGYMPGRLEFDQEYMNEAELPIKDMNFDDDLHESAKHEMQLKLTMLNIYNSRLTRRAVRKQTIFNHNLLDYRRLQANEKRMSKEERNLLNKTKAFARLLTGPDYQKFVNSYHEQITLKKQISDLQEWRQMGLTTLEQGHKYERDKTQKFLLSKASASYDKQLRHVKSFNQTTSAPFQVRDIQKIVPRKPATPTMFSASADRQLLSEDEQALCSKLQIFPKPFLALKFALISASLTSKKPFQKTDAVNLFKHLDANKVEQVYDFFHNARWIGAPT
Nature of the assay: two-hybrid.

The target in assay [2] is Gal4BD-Gcn5 (full-length) (S. pombe) (UniProt Q9UUK2). Nature of the assay: two-hybrid.
For the next assay, the target named is Gcn5-myc (S. pombe) (UniProt Q9UUK2). Nature of the assay: co-IP.
The target in assay [3] is T2, Gal4BD-Nse2 (aa2-178) (S. pombe) (UniProt Q4PIR3).
T2 sequence: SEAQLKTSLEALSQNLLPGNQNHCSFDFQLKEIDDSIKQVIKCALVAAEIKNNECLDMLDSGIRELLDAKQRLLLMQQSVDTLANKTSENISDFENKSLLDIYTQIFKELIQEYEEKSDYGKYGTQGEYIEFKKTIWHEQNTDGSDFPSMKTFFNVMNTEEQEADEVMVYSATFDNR
The assay is described as follows: two-hybrid.

Assay [4] addresses T3, Gal4BD-SMC5 CC arm (aa170-225 + 837-910) (S. pombe) (UniProt O13710).
T3 sequence: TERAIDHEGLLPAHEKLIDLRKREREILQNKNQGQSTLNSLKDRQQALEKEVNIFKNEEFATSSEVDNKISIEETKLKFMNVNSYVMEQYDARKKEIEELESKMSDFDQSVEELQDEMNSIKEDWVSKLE
The assay is described as follows: two-hybrid.

No constants are given. Whether binding was seen depends on the method and setting. For some of these results: In cells and extracts the contact can be indirect. Some results given as binding are weak or reduced against the parent protein; the word gives no strength. For some of these results: Where a sequence is shown, tags or fusion partners need not be part of it.

B1: pGADT7-Nse3(aa1-328) (protein, UniProt Q9Y7U4 1-328)
chain: MSQLSFTGKSSSKGRSRLTQEVRPTASQIIADEEASDLDEYEEDLEGSGNEDDFGPSMSRSSRGRKRRKGDPLELQSQFEERNETDAINFQLLVRNVVRYAICSQTSHNTITRKDIVQKAFPEGTSRNLFQSVFEEADRQLQLSFGFRLVAVTQSNRKKDMAVSQLRRPATSNANSSNLHRYWVLRSTLPMELQKDSRLIVDSVLDTAYYGFLMTVIAFIAVSHCSVGHSELQSFLQELLTEEETTPLHLDITRSLSLLVRQGYLDRVKDDTHNQFVYYIGSRAVTEISIEGLKSFVTEFFPDSDIDMDALLTEYRQEYQNQSSSSAA
In the case of B1, the binding result in assay [1] and in assay [2] was “binds” each time.

B2: Gal4AD-Nse3 (aa1-190) (domain or fragment, UniProt Q9Y7U4 1-190)
chain: MSQLSFTGKSSSKGRSRLTQEVRPTASQIIADEEASDLDEYEEDLEGSGNEDDFGPSMSRSSRGRKRRKGDPLELQSQFEERNETDAINFQLLVRNVVRYAICSQTSHNTITRKDIVQKAFPEGTSRNLFQSVFEEADRQLQLSFGFRLVAVTQSNRKKDMAVSQLRRPATSNANSSNLHRYWVLRSTLP
On to B2, for which, in assay [2], the binding result was “binds”.

B3: Nse4-FLAG (protein, UniProt Q6BDR8 1-300)
chain: MSSIDKRDLRKRYRNLINKVQESRLELVDEENNNLYETITTANDLFSSVDAPTEATLDALLLTKTVDLASIKARQLHIGRPKFNIELFTKNIKQFLNYPTSHSNVTRIQEIDTAWSRLGKLASNCEKQPASLNLMVGPLSFRKKERNIQRRERLQKAPNVLTQPTMLNERNITTQENNTTKNVLHISRLLQAHQPVNFLKFITNPQSYPQTVENLFYVSFLFKEGKAALVENESGILMLETRIPPTDDQVVAGEIRNIQLVLDMTMDLYENIIKEYNIKESIIPTRAPVETSTNSNTWYG
Consider B3, for which, in the assay with Gcn5-myc (S. pombe), the binding result is on record as “binds weakly”.

B4: Gal4AD-Nse3 (aa200-307) (domain or fragment, UniProt Q9Y7U4 200-307)
chain: IVDSVLDTAYYGFLMTVIAFIAVSHCSVGHSELQSFLQELLTEEETTPLHLDITRSLSLLVRQGYLDRVKDDTHNQFVYYIGSRAVTEISIEGLKSFVTEFFPDSDID
As to B4, in assay [1], the binding result is “binds”.

B5: Gal4AD-Ada2 (full-length) (protein, UniProt Q9P7J7 1-437)
chain: MPPQKYHCNVCAQDITRSIHIRCVECVDFDLCIPCFTSGASLGTHHPSHPYRIIETNSYPIFDENWGADEELLLIDACETLGLGNWADIADYVGNARTKEECRDHYLKTYIESDCYPLASVELPGPVDRIAFAARKRARIEAFQPPPIIPQKPLASTPQCHEIQGYMPGRLEFDQEYMNEAELPIKDMNFDDDLHESAKHEMQLKLTMLNIYNSRLTRRAVRKQTIFNHNLLDYRRLQANEKRMSKEERNLLNKTKAFARLLTGPDYQKFVNSYHEQITLKKQISDLQEWRQMGLTTLEQGHKYERDKTQKFLLSKASASYDKQLRHVKSFNQTTSAPFQVRDIQKIVPRKPATPTMFSASADRQLLSEDEQALCSKLQIFPKPFLALKFALISASLTSKKPFQKTDAVNLFKHLDANKVEQVYDFFHNARWIGAPT
Regarding B5, the binding entry in assay [3] and in assay [4] was “binds” each time.
